According to PubChem BioAssay AID1347075 (National Center for Advancing Translational Sciences (NCATS), 2019):
Hit rate of the full screen: of about 400,000 compounds, about 5,500 (1.4%) were called active. Inconclusive means that the source gave no clear call. Such entries were picked first, then a sample of the others. Calls follow the shape of the dose curve; as a rule, active = well fitted cell-killing curve with a large enough effect; inconclusive = small, poorly fitted or top-dose-only effect, or effect the other way; inactive = flat fitted curve, though single readings scatter. Potencies of inconclusive entries are doubtful fits and often do not repeat.

assay: qHTS assay for MDR1-selective chemotherapeutics: Primary screen using the parental adenocarcinoma cell KB-3-1; details: KB-3-1 viability, CellTiter-Glo ATP luminescence, 72 h; series mostly up to 46.1 µM; also: nearly all actives have a fitted effect of over 60% in size
Procedure, shortened: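 Viability of parental KB-3-1 cells, measured by CellTiter-Glo luminescence, followed a 72 h incubation at 37 °C with pinned compounds in phenol-red-free DMEM containing 10% FBS.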
Potency is read from the fitted curve at half-maximal effect.

| SMILES | Potency |
| --- | --- |
| Cc1cc(C)c(S(=O)(=O)/N=C2/C=C(Sc3ncn[nH]3)C(=O)c3ccccc32)cc1C | inconclusive: 18.4 µM [cytotoxic, single point] |
| CCc1nnc(NC(=O)c2cc(C)nc3ccccc23)s1 | inconclusive: 23.1 µM [rising, partial curve, poor fit] |
| CC(C)CC(=O)N1CCN(c2ccc([N+](=O)[O-])c(NCc3ccccc3)c2)CC1 | inconclusive: 29.1 µM [cytotoxic, single point] |
| O=C(CCS(=O)(=O)Cc1ccccc1)Nc1nc2c(s1)CCCC2 | inconclusive: 29.1 µM [cytotoxic, single point] |
| CCOc1ccc(/C=N/NC(=O)c2ccccc2O)cc1CN1CC2CC(C1)c1cccc(=O)n1C2 (stereo not drawn) | inactive |
| CC(=O)Nc1ccc(S(=O)(=O)N2CC3(C)CC2CC(C)(C)C3)cc1 (stereo not drawn) | inactive |
| O=C(CSC1=NNC(c2ccccn2)S1)Nc1ccccc1 (stereo not drawn) | inactive |
| Cc1cccc(NC(=O)c2ccc(N3C(=O)C4C5C=CC(C6CC56)C4C3=O)cc2)c1 (stereo not drawn) | inconclusive: 10.3 µM [cytotoxic, partial curve] |
| COc1ccc(Cn2c(C(=O)O)c(CNC3CCCCCC3)c3ccc(OC)cc32)cc1 | inconclusive: 32.6 µM [cytotoxic, single point] |
| O=C(O)c1ccc2c(=O)n3c(nc2c1)/C(=C/c1ccc(Cl)cc1Cl)CC3 | inconclusive: 29.1 µM [cytotoxic, single point] |
| OC[C@@H]1CN(Cc2ccco2)C[C@H](n2cnc3c(N4CCOCC4)ncnc32)O1 | inactive |
| COc1ccc(-c2nc3cc(C)c(Br)c(C)n3c2CC2CCCCC2)cc1OC | inactive |
| CCOc1cc2[nH]c(=O)n(CCC(=O)NCCc3ccc(OC)c(OC)c3)c(=O)c2cc1OCC | inactive |
| O=[N+]([O-])c1cc(CN2CCCC2)ccc1Sc1ccc(Cl)cc1 | inconclusive: 23.1 µM [cytotoxic, partial curve, poor fit] |
| CCOC(=O)C1CCN(Cc2c(C(=O)N3CCOCC3)nc3c(C)cccn23)CC1 | inconclusive: 29.1 µM [rising, single point] |
| CCn1c(=O)c(C(=O)NNS(=O)(=O)c2ccc(C)cc2)c(O)c2ccccc21 | inactive |
| C/C(=N\NC(=O)c1ccc(OC2OCCOC2Oc2ccc(C(=O)N/N=C(\C)c3ccncc3)cc2)cc1)c1ccncc1 (stereo not drawn) | inconclusive: 29.1 µM [cytotoxic, single point] |
| O=C(Nc1ncc(Cc2cc(Cl)ccc2Cl)s1)c1ccc([N+](=O)[O-])cc1 | inconclusive: 16.4 µM [cytotoxic, single point] |

Three entries out of the list, arranged by heavy-atom count, ascending.

| SMILES | Potency |
| --- | --- |
| O=[N+]([O-])c1cc(CN2CCCC2)ccc1Sc1ccc(Cl)cc1 | inconclusive: 23.1 µM [cytotoxic, partial curve, poor fit] |
| CCn1c(=O)c(C(=O)NNS(=O)(=O)c2ccc(C)cc2)c(O)c2ccccc21 | inactive |
| COc1ccc(-c2nc3cc(C)c(Br)c(C)n3c2CC2CCCCC2)cc1OC | inactive |
